In patent US10357495B2, “Topical formulations of PDE-4 inhibitors and their methods of use” (Dermavant Sciences GmbH, priority 2016, dated 2019):
For at least one compound, name, drawing or mass did not settle the structure.

System: inflammatory cytokines and chemokines
Assay: Cytokine analysis of skin samples (LUMINEX panel), DNCB-induced AD in NC/Nga mice
Format: in vivo
Settings: day 15

For `CNc1nc(-c2cccc(NC(=O)c3ccc(C(=O)OC)cc3)c2)c2cc(OC)c(OC)cc2n1` [RVT-501, methyl N-[3-(6,7-dimethoxy-2-methylaminoquinazolin-4-yl)phenyl]terephthalamic acid], the “G-CSF, GM-CSF, KC, MIP-1α, and TNF-α in skin” value (prophylactic study, dose-dependent (0.2% and 0.5%)) was “significantly reduced” and the Il-1β in skin (therapeutic study, dose-dependent) was “significant dose-dependent decrease”.
